From article PMC10447538
Results are given in words; binding and its absence hold for the method and conditions named. Binding seen in cells or lysates may run through a third protein. Here binding means that the protein was enriched with, or labelled near, the bait; the list need not be complete. Where a sequence is shown, tags or fusion partners need not be part of it.

The chains behind the UniProt entries cited, without tags or fusion partners.
UniProt P08670: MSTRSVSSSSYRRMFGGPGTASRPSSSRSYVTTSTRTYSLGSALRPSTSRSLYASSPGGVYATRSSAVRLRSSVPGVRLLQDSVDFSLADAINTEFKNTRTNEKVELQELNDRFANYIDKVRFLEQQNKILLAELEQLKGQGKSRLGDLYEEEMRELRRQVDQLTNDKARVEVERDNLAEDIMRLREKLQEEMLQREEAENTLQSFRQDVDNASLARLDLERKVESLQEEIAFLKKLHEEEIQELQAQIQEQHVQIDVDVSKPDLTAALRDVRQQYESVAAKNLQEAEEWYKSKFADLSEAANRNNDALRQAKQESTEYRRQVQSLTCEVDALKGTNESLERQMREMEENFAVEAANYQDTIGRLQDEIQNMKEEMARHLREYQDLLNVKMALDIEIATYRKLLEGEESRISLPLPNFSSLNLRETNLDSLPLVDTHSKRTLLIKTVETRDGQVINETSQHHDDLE

Target: T1, Flag-tagged LGSN (lengsin, lens protein with glutamine synthetase domain) (human) (UniProt Q5TDP6)
T1 sequence: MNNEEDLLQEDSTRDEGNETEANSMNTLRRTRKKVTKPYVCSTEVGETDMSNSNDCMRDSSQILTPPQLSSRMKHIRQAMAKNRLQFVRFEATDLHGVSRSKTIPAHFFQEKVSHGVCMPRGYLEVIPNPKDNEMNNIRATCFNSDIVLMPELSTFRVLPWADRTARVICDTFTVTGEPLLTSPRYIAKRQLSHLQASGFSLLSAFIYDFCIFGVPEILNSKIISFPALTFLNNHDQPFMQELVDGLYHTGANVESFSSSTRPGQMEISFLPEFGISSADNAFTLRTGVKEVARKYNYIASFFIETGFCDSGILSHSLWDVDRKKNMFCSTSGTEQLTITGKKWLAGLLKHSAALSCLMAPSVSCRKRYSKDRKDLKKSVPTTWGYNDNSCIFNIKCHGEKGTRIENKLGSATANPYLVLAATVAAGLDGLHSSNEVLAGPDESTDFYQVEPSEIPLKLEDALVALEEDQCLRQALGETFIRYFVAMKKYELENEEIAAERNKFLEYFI
Test: affinity purification with mass spectrometry; Flag immunoprecipitation from LGSN-overexpressing GES-1 cell lysates; Coomassie-stained band of about 40-55 kDa analysed by protein mass spectrometry; VEC-overexpressing GES-1 cells as negative control

vimentin (from UniProt P08670 1-466) was tested, and the binding was “binds”.
